Results are given in words; binding and its absence hold for the method and conditions named. In cells and extracts the contact can be indirect. Here binding means that the protein was enriched with, or labelled near, the bait; the list need not be complete. No binding means not detected with the bait.
Biological target: T1, synthetic peptide of the C-terminal tail of SSTR5, including the PDZ ligand motif (mouse)
T1 sequence (peptide): ANGLMQTSRI
Assay: affinity purification with mass spectrometry; SSTR5 C-terminal peptide coupled to NHS-sepharose (3 mg/ml matrix, 50 µl); HEK293 cell lysate in RIPA buffer; GKAP C-terminal peptide as control; bands cut from SDS gel, tryptic digestion, mass spectroscopy; only the target purified

Amino acid sequences for entries named in this document (tags omitted).
UniProt Q9NRD5: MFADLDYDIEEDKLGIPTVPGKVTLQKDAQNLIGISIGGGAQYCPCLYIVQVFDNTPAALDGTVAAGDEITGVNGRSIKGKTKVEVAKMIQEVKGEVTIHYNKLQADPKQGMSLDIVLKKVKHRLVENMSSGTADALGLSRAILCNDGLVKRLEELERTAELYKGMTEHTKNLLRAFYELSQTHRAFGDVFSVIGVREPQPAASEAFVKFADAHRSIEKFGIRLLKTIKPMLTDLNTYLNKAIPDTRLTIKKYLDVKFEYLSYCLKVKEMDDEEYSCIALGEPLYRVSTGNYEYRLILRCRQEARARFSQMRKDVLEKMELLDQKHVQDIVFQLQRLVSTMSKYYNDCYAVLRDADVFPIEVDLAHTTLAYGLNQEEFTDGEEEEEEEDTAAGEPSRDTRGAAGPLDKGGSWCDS

Substance: protein interacting with C kinase 1 (PICK1), endogenous in HEK293 cells (from UniProt Q9NRD5 1-415)
- binding: no binding
